Taken from: PubChem BioAssay AID1259254 (NCATS, 2017)
Screen: 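Gene knock-downs that lead to re-replication, shown by excess G2 DNA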 (primary screen). Cells: human HCT116 colorectal cancer cells. Knock-down reagent: single siRNA against human genes. Timing: 3 days. Read-out: 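Imaged Hoechst DNA stain sorts each cell into a cycle phase by DNA amount; per plate, G2 fraction set to 0% for non-targeting and 100% for GMNN siRNA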. Reading the numbers: G2 robust z-score and G2 cells, % of GMNN control: higher = more G2 cells, more excess DNA replication; raw share of cells in G2: higher = larger share of cells with G2 DNA content. Hit rule: 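An siRNA counts as active if its G2 robust z-score lies at least 5 MADs above the screen median; here such calls match roughly 38% of GMNN control or more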.
The whole screen tested about 59,000 reagents; this is a part drawn at random. Of all reagents, about 1,550 (2.6%) were called active. 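G2 share is only a proxy for re-replication; each gene was hit by three separate siRNAs, and active genes were retested.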 Raw values vary from plate to plate and are shown uncorrected. The numbers tell different reagents against one gene apart. Not stated in the record: the amount of reagent.

target,siRNA no.,G2 robust z-score,"G2 cells, % of GMNN control",raw share of cells in G2 (%),activity call
DCUN1D4 (GeneID 23142),1,1.32,12.3,7.54,inactive
DCUN1D4 (GeneID 23142),2,-0.66,-1.68,2.31,inactive
DCUN1D4 (GeneID 23142),3,0.186,4.27,5.89,inactive
MNMIP1 (GeneID 79729),1,0.00719,3.02,5.7,inactive
MNMIP1 (GeneID 79729),2,6.77,50.6,26.4,active
MNMIP1 (GeneID 79729),3,-1.2,-5.49,0.875,inactive
MYO1A (GeneID 4640),1,-0.623,-1.42,2.73,inactive
MYO1A (GeneID 4640),2,-1.4,-6.9,2.69,inactive
MYO1A (GeneID 4640),3,-1.17,-5.24,3.39,inactive
MED11 (GeneID 400569),1,0.29,5.01,5.63,inactive
MED11 (GeneID 400569),2,0.799,8.59,6.93,inactive
MED11 (GeneID 400569),3,2.67,21.7,13.8,inactive
NME7 (GeneID 29922),1,-0.299,0.862,5.86,inactive
NME7 (GeneID 29922),2,1.99,17,11.4,inactive
NME7 (GeneID 29922),3,-0.509,-0.611,3.49,inactive
ALDH1A1 (GeneID 216),1,3.51,27.6,14.9,inactive
ALDH1A1 (GeneID 216),2,-0.158,1.85,4.68,inactive
ALDH1A1 (GeneID 216),3,1.37,12.6,9.01,inactive
ZNF776 (GeneID 284309),1,1.45,13.2,7.63,inactive
ZNF776 (GeneID 284309),2,1.85,16,8.71,inactive
ZNF776 (GeneID 284309),3,-0.0983,2.28,4.32,inactive
STAB1 (GeneID 23166),1,-0.551,-0.911,3.22,inactive
STAB1 (GeneID 23166),2,3.02,24.2,16.8,inactive
STAB1 (GeneID 23166),3,-0.0843,2.37,4.33,inactive
COX6C (GeneID 1345),1,-0.168,1.78,5.64,inactive
COX6C (GeneID 1345),2,0.728,8.09,7.85,inactive
COX6C (GeneID 1345),3,-0.166,1.8,4.71,inactive
SLC16A13 (GeneID 201232),1,2.32,19.3,12.8,inactive
SLC16A13 (GeneID 201232),2,-1.08,-4.61,3.76,inactive
SLC16A13 (GeneID 201232),3,1.26,11.8,9.03,inactive
CHRNA4 (GeneID 1137),1,3.22,25.6,14.6,inactive
CHRNA4 (GeneID 1137),2,1.24,11.7,8.74,inactive
CHRNA4 (GeneID 1137),3,0.306,5.12,6.37,inactive
EAPP (GeneID 55837),1,0.316,5.19,6.52,inactive
EAPP (GeneID 55837),2,-0.347,0.528,4.36,inactive
EAPP (GeneID 55837),3,2.08,17.6,8.76,inactive
SLC30A4 (GeneID 7782),1,-0.61,-1.33,3.77,inactive
SLC30A4 (GeneID 7782),2,1.39,12.8,8.68,inactive
SLC30A4 (GeneID 7782),3,1.4,12.8,11,inactive
OR5B3 (GeneID 441608),1,-0.153,1.89,4.35,inactive
OR5B3 (GeneID 441608),2,-0.103,2.24,4.27,inactive
OR5B3 (GeneID 441608),3,-0.141,1.97,3.79,inactive
SMG8 (GeneID 55181),1,-0.536,-0.806,4.21,inactive
SMG8 (GeneID 55181),2,-0.251,1.2,4.64,inactive
SMG8 (GeneID 55181),3,1.06,10.4,6.47,inactive
TSPYL6 (GeneID 388951),1,-0.528,-0.744,3.52,inactive
TSPYL6 (GeneID 388951),2,-0.015,2.86,4.65,inactive
TSPYL6 (GeneID 388951),3,-0.127,2.08,5.52,inactive
TBC1D2B (GeneID 23102),1,-1.08,-4.6,3.18,inactive
TBC1D2B (GeneID 23102),2,-0.415,0.0447,4.15,inactive
TBC1D2B (GeneID 23102),3,-0.0823,2.39,4.07,inactive
AGPAT1 (GeneID 10554),1,-0.4,0.155,5.76,inactive
AGPAT1 (GeneID 10554),2,-0.559,-0.965,6.1,inactive
AGPAT1 (GeneID 10554),3,0.0435,3.27,4.9,inactive
ANKRD34A (GeneID 284615),1,1.54,13.8,8.68,inactive
ANKRD34A (GeneID 284615),2,0.184,4.26,4.69,inactive
ANKRD34A (GeneID 284615),3,-0.314,0.758,3.5,inactive
ALB (GeneID 213),1,0.0687,3.45,5.89,inactive
ALB (GeneID 213),2,-0.463,-0.288,4.97,inactive
ALB (GeneID 213),3,3.93,30.6,15.4,inactive
RAVER1 (GeneID 125950),1,-0.718,-2.09,4.7,inactive
RAVER1 (GeneID 125950),2,1.72,15.1,10.2,inactive
RAVER1 (GeneID 125950),3,-0.178,1.71,5.7,inactive
CRYBB3 (GeneID 1417),1,0.533,6.72,8.45,inactive
CRYBB3 (GeneID 1417),2,-0.24,1.28,4.56,inactive
CRYBB3 (GeneID 1417),3,-0.392,0.21,3.6,inactive
DZIP1 (GeneID 22873),1,-0.0269,2.78,7.48,inactive
DZIP1 (GeneID 22873),2,0.37,5.57,6.02,inactive
DZIP1 (GeneID 22873),3,-0.32,0.714,4.11,inactive

Targets above whose gene name begins with Z or z:
target,siRNA no.,G2 robust z-score,"G2 cells, % of GMNN control",raw share of cells in G2 (%),activity call
ZNF776 (GeneID 284309),1,1.45,13.2,7.63,inactive
ZNF776 (GeneID 284309),2,1.85,16,8.71,inactive
ZNF776 (GeneID 284309),3,-0.0983,2.28,4.32,inactive
